Results deposited as PubChem BioAssay AID1259291 (Sanger Institute, 2017)

Aim: 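Find kinase and colorectal-cancer-mutated genes whose loss kills HT29 cells or aids anchor drugs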 (primary screen)
Cell system: HT29 human colorectal cancer cells
Reagent: siRNA pool against human genes
Conditions: anchor drugs added a day after transfection: BYL719 at 1 µM, cetuximab at 5 µg/ml or trametinib at 10 nM, or DMSO vehicle alone
Measurement: 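Cell viability as a fraction of the non-targeting pool, mean of replicates, robust z-scores from control wells; synergy scores for BYL719 (1 µM), cetuximab (5 µg/ml), trametinib (10 nM)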
Direction: robust z-score, knock-down alone and viability, knock-down alone: higher = more viable cells; synergy score with BYL719 and synergy score with cetuximab and synergy score with trametinib: higher = stronger synergistic killing with drug
Rule for the call: 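Essential when the robust z-score for knock-down without any drug is below -3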
Calls: active = essential (knock-down alone); inactive = no change alone
In all, the deposit lists 794 reagents; below is an unselected part. 15 of all reagents (1.9%) count as active. 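Calls rest on knock-down alone; drug synergy scores do not affect them; drugs added a day post-transfection, DMSO vehicle as comparison.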 A number with no mark means an inactive call. Viability is capped at 1. Not given: the amount of reagent, the time to read-out.

| target | robust z-score, knock-down alone | viability, knock-down alone (fraction of control) | synergy score with BYL719 | synergy score with cetuximab | synergy score with trametinib |
| --- | --- | --- | --- | --- | --- |
| HASPIN (GeneID 83903) | -2.21 | 0.829 | 0.00132 | -0.171 | 0.0976 |
| TBK1 (GeneID 29110) | 0.552 | 1 | -0.0586 | 0 | -0.0858 |
| WT1 (GeneID 7490) | 0.552 | 1 | 0.0188 | 0.123 | 0.07 |
| DLG3 (GeneID 1741) | 0.552 | 1 | 0.0341 | 0 | 0.00705 |
| PRKACB (GeneID 5567) | -0.0664 | 0.962 | -0.0483 | 0.0155 | -0.0822 |
| PKN3 (GeneID 29941) | -0.88 | 0.911 | -0.113 | -0.0889 | 0.00469 |
| IKBKG (GeneID 8517) | 0.552 | 1 | 0.069 | 0 | 0.149 |
| VRK1 (GeneID 7443) | -0.672 | 0.924 | -0.125 | -0.0669 | -0.0486 |
| DCLK1 (GeneID 9201) | -2.67 | 0.8 | -0.024 | -0.138 | 0.0912 |
| MINK1 (GeneID 50488) | 0.552 | 1 | 0.0941 | 0.102 | 0.071 |
| MET (GeneID 4233) | 0.552 | 1 | 0.000115 | 0.105 | 0.0288 |
| RIOK2 (GeneID 55781) | -0.837 | 0.914 | -0.111 | -0.0264 | -0.169 |
| HSPB8 (GeneID 26353) | 0.352 | 0.988 | 0.0232 | 0.0648 | 0.0757 |
| CDKN2D (GeneID 1032) | 0.552 | 1 | 0.0591 | 0.161 | 0.198 |
| MSR1 (GeneID 4481) | -0.0819 | 0.961 | -0.0862 | -0.0361 | -0.0517 |
| CSNK1A1L (GeneID 122011) | 0.552 | 1 | 0.0313 | 0.148 | -0.21 |
| PAPSS2 (GeneID 9060) | 0.552 | 1 | -0.0654 | 0.0442 | 0.118 |
| BPTF (GeneID 2186) | 0.552 | 1 | 0.106 | 0.0624 | 0.209 |
| SCYL1 (GeneID 57410) | 0.431 | 0.992 | -0.0506 | 0.0497 | -0.117 |
| CDK9 (GeneID 1025) | 0.552 | 1 | -0.15 | 0 | -0.102 |
| PRKAR1B (GeneID 5575) | 0.552 | 1 | 0.0543 | 0.0937 | 0.0402 |
| NUP62 (GeneID 23636) | 0.552 | 1 | -0.127 | 0 | 0.0571 |
| MAP3K9 (GeneID 4293) | 0.552 | 1 | 0.171 | 0.253 | 0.0372 |
| JAK3 (GeneID 3718) | 0.552 | 1 | 0.0711 | 0.0412 | 0.0861 |
| GRK6 (GeneID 2870) | 0.552 | 1 | 0.0372 | 0.0669 | 0.0127 |
| DIS3 (GeneID 22894) | 0.552 | 1 | -0.0123 | 0.0597 | -0.0629 |
| CSNK1G3 (GeneID 1456) | 0.552 | 1 | -0.0479 | 0 | 0.0672 |
| DCLK2 (GeneID 166614) | -1.44 | 0.876 | -0.0441 | -0.109 | -0.00822 |
| PRKCZ (GeneID 5590) | 0.552 | 1 | -0.0896 | 0 | -0.0802 |
| CDKN1B (GeneID 1027) | 0.552 | 1 | 0.0344 | 0.0271 | -0.000889 |
| MERTK (GeneID 10461) | 0.00971 | 0.966 | -0.0295 | -0.0337 | 0.0114 |
| CAMKK1 (GeneID 84254) | 0.552 | 1 | -0.0482 | 0.0661 | -0.0487 |
| MAPK15 (GeneID 225689) | -0.293 | 0.948 | -0.0317 | -0.00584 | -0.0779 |
| GUCY2F (GeneID 2986) | 0.552 | 1 | -0.0749 | 0.0491 | 0.0629 |
| PKMYT1 (GeneID 9088) | 0.552 | 1 | 0.0209 | 0.106 | -0.00309 |
| MAP3K7 (GeneID 6885) | -0.679 | 0.924 | -0.148 | -0.0764 | 0.021 |
| SHPK (GeneID 23729) | 0.0251 | 0.967 | 0.00362 | 0.0403 | -0.128 |
| GUCY2D (GeneID 3000) | -6.33 (active) | 0.573 | -0.108 | 0.0286 | 0.132 |
| GRK1 (GeneID 6011) | 0.552 | 1 | 0.0102 | 0 | 0.0304 |
| TGFBR2 (GeneID 7048) | -0.173 | 0.955 | 0.0117 | 0.0668 | 0.119 |
| ADPGK (GeneID 83440) | 0.552 | 1 | 0.0366 | 0.147 | -0.101 |
| CHKA (GeneID 1119) | 0.552 | 1 | 0.0662 | 0.116 | 0.0897 |
| PTEN (GeneID 5728) | -1.76 | 0.856 | -0.218 | -0.118 | -0.0446 |
| SIK2 (GeneID 23235) | 0.552 | 1 | -0.0708 | 0.0857 | 0.0646 |
| CDK8 (GeneID 1024) | 0.542 | 0.999 | 0.0287 | -0.000676 | -0.0608 |
| TPD52L3 (GeneID 89882) | 0.552 | 1 | 0.0262 | 0.032 | -0.0683 |
| CLK1 (GeneID 1195) | 0.552 | 1 | -0.158 | 0 | -0.0472 |
| LMTK2 (GeneID 22853) | 0.552 | 1 | -0.0466 | 0.0429 | 0.0805 |
| DLG2 (GeneID 1740) | 0.552 | 1 | 0.0439 | 0.0804 | -0.0567 |
| PIK3CD (GeneID 5293) | 0.552 | 1 | -0.142 | 0.00952 | -0.0471 |
| NEK5 (GeneID 341676) | 0.552 | 1 | -0.0811 | 0.126 | 0.0525 |
| BCR (GeneID 613) | 0.552 | 1 | 0.12 | 0.0288 | 0.184 |
| MAPK12 (GeneID 6300) | -2.46 | 0.813 | -0.228 | -0.089 | -0.199 |
| CDC42BPA (GeneID 8476) | 0.552 | 1 | 0.12 | 0.0403 | 0.0456 |
| TWF1 (GeneID 5756) | -1.38 | 0.88 | -0.174 | -0.0822 | -0.00671 |
| GK (GeneID 2710) | 0.552 | 1 | -0.0872 | 0 | -0.0766 |
| CDK11B (GeneID 984) | -0.579 | 0.93 | -0.201 | -0.0234 | -0.105 |
| CDK19 (GeneID 23097) | -0.164 | 0.956 | -0.00293 | 0.0233 | 0.0441 |
| MATK (GeneID 4145) | 0.552 | 1 | 0.116 | 0.0397 | -0.015 |
| PANK4 (GeneID 55229) | 0.552 | 1 | 0.113 | 0.065 | -0.0312 |
| PAK2 (GeneID 5062) | 0.552 | 1 | -0.0858 | 0.0734 | 0.0185 |
| BRD3 (GeneID 8019) | 0.552 | 1 | -0.116 | 0.0084 | -0.0395 |
| IKBKE (GeneID 9641) | -0.552 | 0.931 | -0.0373 | 0.0077 | 0.0215 |
